The values below come from PubChem BioAssay AID493014 (National Center for Advancing Translational Sciences (NCATS), 2011).

The structures appear in SMILES notation. This is one part of the list. These are further read-outs of the screen, such as a control signal, another cell line or another target. No call is given for them. The list favours compounds with an active or inconclusive main result. Words in brackets tell the shape of the fitted curve; partial curves, single points and poor fits give uncertain potencies.

This assay can be described thus: qHTS Assay to Find Inhibitors of Chronic Active B-Cell Receptor Signaling. The note with it: ABC-DLBCL IkBa-CBG/CBR reporter, luminescence ratio (green luciferase fused to IkBa over red control in TMD8 lymphoma cells), 4 h. An outline of the steps:
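Doxycycline induced both beetle luciferases in TMD8 lymphoma cells; IKK-driven degradation limits the IkappaBalpha-fused green signal, while red luminescence normalises for cell number and nonspecific effects. Compounds tested up to 46 uM, 4 hrs.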
On the technique in general: In qHTS, concentration-response curves come from the screen itself.

Where [1] appears, read: measured here: CBR red luminescence, cell number.
[2] abbreviates: measured here: IkBa-CBG green luminescence.

On to `CNc1ccc(NC(C)=O)cc1[N+](=O)[O-]`, for which the AC50 under setting [1] was 29.1 µM [rising, single point].

For `COc1ccccc1NC(=O)CNC(=O)c1ccccc1`, the AC50 under setting [1] is 2.59 µM [falling, partial curve, poor fit].

Consider `CCCNC(=O)c1ccc2c(c1)nc(C)n2-c1cccc(C)c1`, for which the AC50 under setting [1] was 35.5 µM [rising, single point].

With `CC(=O)Nc1ccccc1NC(=O)C/C(C)=N/NC(=O)c1cccnc1`, the AC50 under setting [1] is 35.5 µM [falling, single point].

As to `Cc1cnc(C(=O)OCC(=O)Nc2cc(Cl)cc(Cl)c2)cn1`, the half-maximal activity concentration (AC50) was 25.1 µM [falling, single point] under setting [1] and 20 µM [rising, partial curve, poor fit] under setting [2].

For `Cc1cc(C(=O)N2CCCC(C(=O)c3ccc4ccccc4c3)C2)nn1C` (centres undefined), the AC50 under setting [1] was 17.8 µM [rising, partial curve, poor fit].

With `Nc1nc(COc2ccccc2)cs1`, the AC50 under setting [1] was 18.4 µM [rising, single point].

With `CCOC(=O)COc1cc(Br)c(/C=N/Nc2ccccc2)cc1OC`, the AC50 under setting [1] is 10 µM [falling, partial curve, poor fit].

`Oc1c(C=C2N=c3ccccc3=N2)sc(=S)n1C1CCCCC1`: the AC50 under setting [1] was 5.17 µM [rising, full curve, poor fit].

For the molecule `CSCCC(NC(N)=O)C(=O)Nc1ccc2ccccc2c1` (centres undefined), under setting [1], the AC50 was 1.58 µM [rising, full curve, poor fit].

For the molecule `O=C(Nc1cccnc1)c1ccc([N+](=O)[O-])s1`, the AC50 under setting [1] was 29.1 µM [rising, single point].

Regarding `COc1cc(CC(=O)Nc2ccc(S(=O)(=O)NC3=NCCCCC3)cc2)cc(OC)c1OC`, under setting [1], the AC50 was 2.82 µM [rising, full curve, poor fit].

As for `Fc1cccc(Cl)c1CNc1ccc(N2CCCC2)cc1`, under setting [1], the AC50 is 20 µM [falling, single point].

`CCOC(=O)c1c(NC(=O)COc2ccc(CC)cc2)sc2c1CCCC2`: the AC50 under setting [1] is 35.5 µM [falling, single point] and the AC50 under setting [2] was 35.5 µM [rising, single point].

For the molecule `COc1cc(OC)cc(C(=O)Nc2ccc(-c3nc4ccccc4s3)c(C)c2)c1`, under setting [1], the AC50 is 3.55 µM [rising, partial curve, poor fit].

As to `O=C1C(C=Nc2ccccc2O)=C(O)c2ccccc21`, the AC50 under setting [1] was 2.82 µM [falling, full curve].

For `O=C(Nc1ccnn1C1CCN(CCCc2ccccc2)CC1)c1ccccc1`, under setting [1], the AC50 is 25.1 µM [falling, partial curve].

As for `O=C(N/N=C\C=C\c1ccc2c(c1)OCO2)c1cccnc1`, under setting [1], the AC50 is 29.1 µM [falling, single point].

In the case of `CCOC(=O)C1=C(C)NC(C)=C(C(=O)OCC)C1C(=O)OCC(=O)NCc1ccco1`, the AC50 is 16.4 µM [rising, single point] under setting [1] and 23.1 µM [falling, partial curve, poor fit] under setting [2].

For `O=c1[nH]c(C2CCN(S(=O)(=O)c3ccccc3)CC2)nc2c1nnn2Cc1ccccc1`, the concentration at half-maximal activity (AC50) under setting [1] was 0.316 µM [falling, full curve, poor fit].

Consider `CSc1ccccc1COC(=O)Nc1ccccc1C`, for which, under setting [1], the AC50 is 1.78 µM [falling, partial curve, poor fit].

Take `CC(C(=O)NCC1CCCCC1)N(C)Cc1cccc(Cl)c1` (centres undefined): the concentration at half-maximal activity (AC50) under setting [1] is 22.4 µM [falling, single point].

`Cc1ccc(C(C(=O)NC(C)(C)C)N(C(=O)CCC(=O)Nc2ccccn2)c2ccccc2F)cc1` (centres undefined): under setting [1], the AC50 was 25.1 µM [falling, single point].

As to `Cn1cccc1/C=N/n1c(-c2ccc(C(C)(C)C)cc2)n[nH]c1=S`, the AC50 under setting [1] was 35.5 µM [rising, partial curve, poor fit].

For `COCCN1C(=O)c2ccccc2C(C(=O)NCCCN2CCCC2)C1c1c[nH]c2ccccc12` (centres undefined), the AC50 under setting [1] was 0.731 µM [rising, full curve, poor fit].

Regarding `COCc1nnc(NS(=O)(=O)c2ccc(C)cc2)s1`, the AC50 under setting [1] was 6.51 µM [falling, single point].

For `C/C(CC(=O)NCc1ccco1)=N\NC(=O)c1ccc([N+](=O)[O-])cc1Cl`, the half-maximal activity concentration (AC50) under setting [1] was 10 µM [falling, partial curve, poor fit].

Regarding `Cc1nnc(NC(=O)NC(C)N2C(=O)C3C4C=CC(C4)C3C2=O)s1` (centres undefined), the AC50 under setting [1] is 3.98 µM [falling, partial curve, poor fit].

As to `O=C(Nc1c(C(=O)O)[nH]c2ccc(F)cc12)c1cccc(C(F)(F)F)c1`, the AC50 under setting [1] is 35.5 µM [rising, single point].

As for `CC(C)=CCN1CCN(Cc2cc3ccccc3[nH]2)CC1CCO` (centres undefined), under setting [1], the AC50 was 2.82 µM [rising, full curve, poor fit].

Take `CCOc1cc(C(=O)Nc2ccccc2N2CCN(S(C)(=O)=O)CC2)cc(OCC)c1OCC`: the AC50 under setting [1] was 3.66 µM [rising, full curve, poor fit].

As to `Cc1cc(C)nc(SCC(=O)c2ccc(F)cc2F)n1`, the AC50 under setting [1] is 14.1 µM [rising, single point].

As to `CCOc1ccc(NC(=S)NNc2ccnc3cc(Cl)ccc23)cc1`, the AC50 under setting [1] was 35.5 µM [falling, single point].

Consider `NC1=NC(c2ccc(F)cc2)n2c(nc3ccccc32)N1` (centres undefined), for which the AC50 under setting [1] is 7.08 µM [falling, partial curve].

Take `O=C(CSc1nc2ccccc2c(=O)n1-c1ccc(F)cc1F)Nc1ccc2c(c1)CCC2`: the AC50 under setting [1] is 2.91 µM [rising, full curve] and the AC50 under setting [2] is 3.66 µM [falling, partial curve, poor fit].

With `Oc1[nH]c2ccc(Br)cc2c1N=Nc1ccc(C(F)(F)F)cn1`, the AC50 under setting [1] is 0.0058 µM [rising, full curve, poor fit].

For `Cc1ccc(S(=O)(=O)N(C)CCCC(=O)Nc2cc(C)ccc2C)cc1`, the AC50 under setting [1] is 11.6 µM [rising, partial curve].

`COc1ccc(C(=O)c2coc3c2C(=O)C(=O)c2ccccc2-3)cc1`: the AC50 under setting [1] is 35.5 µM [rising, single point].

For the molecule `Cc1nc(N2CCN(c3ccccc3)CC2)nc2c1C(=O)CC(C)C2` (centres undefined), the AC50 under setting [1] was 17.8 µM [rising, single point].

For the molecule `COc1ccc(S(=O)(=O)N2CCOC2CNC(=O)C(=O)NCc2ccccn2)cc1C` (centres undefined), the AC50 under setting [1] was 6.31 µM [rising, partial curve, poor fit].

For `Cc1cc(N/N=C/c2ccccc2O)nc(-c2ccccc2O)n1`, the AC50 under setting [1] was 1.3 µM [falling, full curve].

For the molecule `CCC1=Nc2cc(C(=O)NCC3CCCO3)ccc2Sc2ccc(Cl)cc21` (centres undefined), the AC50 by setting is: under setting [1], 15.8 µM [rising, single point]; under setting [2], 22.4 µM [falling, single point].

For the molecule `CCCCCCc1cc2cc(C(=O)Nc3ccc(OC)cc3)c(=O)oc2cc1O`, under setting [1], the AC50 was 8.2 µM [falling, partial curve].

Take `Cc1cccnc1NC(=S)NCc1ccco1`: under setting [1], the AC50 is 25.1 µM [rising, single point].

In the case of `O=C(Nc1cccc2ccccc12)c1cc2c(cc1Br)OCO2`, the AC50 under setting [2] was 20 µM [falling, partial curve].

`Cc1ccc(C(=O)N2CCN(S(=O)(=O)c3ccc(Br)cc3)CC2)o1`: under setting [1], the AC50 was 3.16 µM [falling, single point].

Consider `COc1ccc(CNC(=O)CSc2nc(-c3ccccc3)cc(-c3cccs3)c2C#N)cc1`, for which the half-maximal activity concentration (AC50) under setting [1] is 2.06 µM [rising, full curve, poor fit].

In the case of `O=C(Nc1ccccc1O)c1ccc(Cl)cc1`, the AC50 under setting [1] is 10 µM [falling, partial curve, poor fit].

For the molecule `CCCCN(CCCNC(=O)C1CCN(C(=O)c2cc3sccc3n2C)CC1)Cc1ccccc1`, under setting [1], the AC50 was 31.6 µM [falling, single point].

As to `c1ccc(Cn2ncc3c(Nc4ccccc4)ncnc32)cc1`, under setting [1], the AC50 was 4.47 µM [falling, partial curve, poor fit].

For the molecule `O=C(O)C1CCN(c2nc(-c3ccccc3)nc3c2oc2ccccc23)CC1`, the concentration at half-maximal activity (AC50) under setting [1] is 8.91 µM [falling, partial curve].

For `Cn1nc(-c2ccccc2)c(COC(=O)c2cccc(Cl)c2)c1S(=O)(=O)c1ccccc1`, under setting [1], the concentration at half-maximal activity (AC50) was 6.51 µM [falling, single point].

For the molecule `Cc1csc2nc(O)c(C(=O)NC3CCCCCC3)c(=O)n12`, the AC50 under setting [1] was 5.8 µM [rising, single point].

As for `CCS(=O)(=O)NCCCCc1ccccc1`, the AC50 under setting [1] was 3.26 µM [falling, single point].

Take `O=S(=O)(c1cccc(Cl)c1)N1CCN(S(=O)(=O)c2ccc3c(c2)OCCO3)CC1`: the AC50 under setting [1] is 20.6 µM [rising, single point].

In the case of `Cc1ccc(S(=O)(=O)c2ncccc2N)cc1`, the AC50 under setting [1] was 35.5 µM [rising, single point].

Consider `Cn1c(-c2ccccc2)cc2c3no[n+]([O-])c3ccc21`, for which the AC50 under setting [1] was 3.16 µM [rising, full curve, poor fit].

Take `CCOc1cccc2sc(N3CCN(C(=O)C(C)(C)C)CC3)nc12`: under setting [1], the AC50 was 2.24 µM [rising, full curve].

As for `CCOC(=O)C1CCN(S(=O)(=O)c2ccc(NC(=O)OC)cc2)CC1`, the AC50 under setting [1] is 5.8 µM [rising, single point].

As to `CN(C)C(CNC(C(=O)Nc1ccc([N+](=O)[O-])cc1Br)c1ccccc1)c1ccccc1` (centres undefined), under setting [1], the AC50 is 15.8 µM [falling, single point].

On to `Cc1cccc(C)c1-n1nnnc1C(C)(C)N1CCN(N=O)CC1`, for which the AC50 under setting [1] is 7.94 µM [rising, partial curve, poor fit].

As to `Cc1cc(OCC(=O)O/N=C(\N)c2ccccc2)ccc1Cl`, under setting [1], the concentration at half-maximal activity (AC50) was 0.058 µM [rising, full curve, poor fit].

Consider `O=C(c1ccccc1)N1N=C(c2ccccc2)CC1c1ccccc1O` (centres undefined), for which the AC50 under setting [1] was 20 µM [falling, partial curve, poor fit].

For `Cc1cccc(C(=O)NC(=S)N2CCN(C)CC2)c1`, the concentration at half-maximal activity (AC50) under setting [1] is 14.1 µM [rising, single point].

As a reminder, the AC50 is the concentration giving half of the maximal activity seen.
